Experimental data as given in the supplement of paper PMC8728848.
The list shows a part of the results.

Key:
Assay in all cases: glycan array binding signal (z-score within array); higher = stronger binding
Conditions in all cases: glycan notation: IUPAC condensed, linker removed; mutation: R201A
[1] = molecular target: Gal(b1-4)GlcNAc(b1-3)Gal(b1-4)GlcNAc(b1-3)Gal(b1-4)GlcNAc
Outline: (§1)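 Glycan array data came from 3228 arrays in the Consortium for Functional Glycomics database, and only arrays with an available protein sequence were kept. Glycan names were put into IUPAC-condensed notation, and columns mapping to the same glycan were averaged. The binding signal is a within-array Z-score, averaged across arrays of one protein sequence run at different concentrations or buffers and across linkers. A negative Z-score can be read as non-binding.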

[2] = molecular target: Gal(b1-4)GlcNAc(b1-3)Gal(b1-4)GlcNAc(b1-3)Gal(b1-4)GlcNAc(b1-2)Man(a1-3)[Gal(b1-4)GlcNAc(b1-3)Gal(b1-4)GlcNAc(b1-3)Gal(b1-4)GlcNAc(b1-2)Man(a1-6)]Man(b1-4)GlcNAc(b1-4)GlcNAc
Outline: as §1

[3] = molecular target: Gal(b1-4)GlcNAc(b1-3)Gal(b1-4)GlcNAc(b1-3)Gal(b1-4)GlcNAc(b1-2)Man(a1-3)[Gal(b1-4)GlcNAc(b1-3)Gal(b1-4)GlcNAc(b1-3)Gal(b1-4)GlcNAc(b1-2)Man(a1-6)]Man(b1-4)GlcNAc(b1-4)[Fuc(a1-6)]GlcNAc
Outline: as §1

[4] = molecular target: Gal(b1-4)GlcNAc(b1-3)Gal(b1-4)GlcNAc(b1-3)Gal(b1-4)GlcNAc(b1-2)[Gal(b1-4)GlcNAc(b1-3)Gal(b1-4)GlcNAc(b1-3)Gal(b1-4)GlcNAc(b1-6)]Man(a1-6)[Gal(b1-4)GlcNAc(b1-3)Gal(b1-4)GlcNAc(b1-3)Gal(b1-4)GlcNAc(b1-2)Man(a1-3)]Man(b1-4)GlcNAc(b1-4)[Fuc(a1-6)]GlcNAc
Outline: as §1

[5] = molecular target: Gal(b1-4)GlcNAc(b1-3)Gal(b1-4)GlcNAc(b1-3)Gal(b1-4)GlcNAc(b1-3)Gal(b1-4)GlcNAc(b1-2)Man(a1-3)[Gal(b1-4)GlcNAc(b1-3)Gal(b1-4)GlcNAc(b1-3)Gal(b1-4)GlcNAc(b1-3)Gal(b1-4)GlcNAc(b1-2)Man(a1-6)]Man(b1-4)GlcNAc(b1-4)GlcNAc
Outline: as §1

[6] = molecular target: Gal(b1-4)GlcNAc(b1-3)Gal(b1-4)GlcNAc(b1-3)Gal(b1-4)GlcNAc(b1-3)Gal(b1-4)GlcNAc(b1-2)Man(a1-3)[Gal(b1-4)GlcNAc(b1-3)Gal(b1-4)GlcNAc(b1-3)Gal(b1-4)GlcNAc(b1-3)Gal(b1-4)GlcNAc(b1-2)Man(a1-6)]Man(b1-4)GlcNAc(b1-4)[Fuc(a1-6)]GlcNAc
Outline: as §1

[7] = molecular target: Gal(b1-4)GlcNAc(b1-3)Gal(b1-4)GlcNAc(b1-3)Gal(b1-4)GlcNAc(b1-3)Gal(b1-4)GlcNAc(b1-2)[Gal(b1-4)GlcNAc(b1-3)Gal(b1-4)GlcNAc(b1-3)Gal(b1-4)GlcNAc(b1-3)Gal(b1-4)GlcNAc(b1-6)]Man(a1-6)[Gal(b1-4)GlcNAc(b1-3)Gal(b1-4)GlcNAc(b1-3)Gal(b1-4)GlcNAc(b1-3)Gal(b1-4)GlcNAc(b1-2)Man(a1-3)]Man(b1-4)GlcNAc(b1-4)[Fuc(a1-6)]GlcNAc
Outline: as §1

[8] = molecular target: Gal(b1-4)GlcNAc(b1-3)Gal(b1-4)GlcNAc(b1-3)Gal(b1-4)GlcNAc(b1-3)Gal(b1-4)GlcNAc(b1-3)Gal(b1-4)GlcNAc(b1-2)Man(a1-3)[Gal(b1-4)GlcNAc(b1-3)Gal(b1-4)GlcNAc(b1-3)Gal(b1-4)GlcNAc(b1-3)Gal(b1-4)GlcNAc(b1-3)Gal(b1-4)GlcNAc(b1-2)Man(a1-6)]Man(b1-4)GlcNAc(b1-4)GlcNAc
Outline: as §1

[9] = molecular target: Gal(b1-4)GlcNAc(b1-3)Gal(b1-4)GlcNAc(b1-3)Gal(b1-4)GlcNAc(b1-3)Gal(b1-4)GlcNAc(b1-3)Gal(b1-4)GlcNAc(b1-2)Man(a1-3)[Gal(b1-4)GlcNAc(b1-3)Gal(b1-4)GlcNAc(b1-3)Gal(b1-4)GlcNAc(b1-3)Gal(b1-4)GlcNAc(b1-3)Gal(b1-4)GlcNAc(b1-2)Man(a1-6)]Man(b1-4)GlcNAc(b1-4)[Fuc(a1-6)]GlcNAc
Outline: as §1

[10] = molecular target: Gal(b1-4)GlcNAc(b1-3)Gal(b1-4)GlcNAc(b1-3)Gal(b1-4)GlcNAc(b1-3)Gal(b1-4)GlcNAc(b1-3)Gal(b1-4)GlcNAc(b1-2)[Gal(b1-4)GlcNAc(b1-3)Gal(b1-4)GlcNAc(b1-3)Gal(b1-4)GlcNAc(b1-3)Gal(b1-4)GlcNAc(b1-3)Gal(b1-4)GlcNAc(b1-6)]Man(a1-6)[Gal(b1-4)GlcNAc(b1-3)Gal(b1-4)GlcNAc(b1-3)Gal(b1-4)GlcNAc(b1-3)Gal(b1-4)GlcNAc(b1-3)Gal(b1-4)GlcNAc(b1-2)Man(a1-3)]Man(b1-4)GlcNAc(b1-4)[Fuc(a1-6)]GlcNAc
Outline: as §1

[11] = molecular target: Gal(b1-4)GlcNAc(b1-3)Gal(b1-4)GlcNAc(b1-3)Gal(b1-4)GlcNAc(b1-3)Gal(b1-4)GlcNAc(b1-3)Gal(b1-4)GlcNAc(b1-3)Gal(b1-4)GlcNAc(b1-2)Man(a1-3)[Gal(b1-4)GlcNAc(b1-3)Gal(b1-4)GlcNAc(b1-3)Gal(b1-4)GlcNAc(b1-3)Gal(b1-4)GlcNAc(b1-3)Gal(b1-4)GlcNAc(b1-3)Gal(b1-4)GlcNAc(b1-2)Man(a1-6)]Man(b1-4)GlcNAc(b1-4)GlcNAc
Outline: as §1

[12] = molecular target: Gal(b1-4)GlcNAc(b1-3)Gal(b1-4)GlcNAc(b1-3)GalNAc
Outline: as §1

[13] = molecular target: Gal(b1-4)GlcNAc(b1-3)Gal(b1-4)GlcNAc(b1-3)[Gal(b1-4)GlcNAc(b1-3)Gal(b1-4)GlcNAc(b1-6)]GalNAc
Outline: as §1

[14] = molecular target: Gal(b1-4)GlcNAc(b1-3)Gal(b1-4)GlcNAc(b1-6)[Gal(b1-3)]GalNAc
Outline: as §1

[15] = molecular target: Gal(b1-4)GlcNAc(b1-3)Gal(b1-4)[Fuc(a1-3)]GlcNAc(b1-3)Gal(b1-4)[Fuc(a1-3)]GlcNAc
Outline: as §1

[16] = molecular target: Gal(b1-4)GlcNAc(b1-3)GalNAc
Outline: as §1

[17] = molecular target: Gal(b1-4)GlcNAc(b1-3)[Fuc(a1-3)GlcNAc(b1-6)]Gal(b1-4)Glc
Outline: as §1

[18] = molecular target: Gal(b1-4)GlcNAc(b1-3)[Gal(b1-4)GlcNAc(b1-6)]Gal(b1-4)GlcNAc
Outline: as §1

[19] = molecular target: Gal(b1-4)GlcNAc(b1-3)[GlcNAc(b1-6)]Gal(b1-4)GlcNAc
Outline: as §1

B1: OS9 (Arabidopsis thaliana) (protein)
chain: MRGSHHHHHHGMASMTGGQQMGRDLYDDDDKSRLQIFPAHLVGTFSRNNREPKYKIEFLPEDSPFHPGDNLESMVMLDKHGNRFLCYLPKEEKATSGWTSSQQNISTVMMETQQLVKLKTPDELLQPLSEKCLFRQEGWWSYEFCHQKYVRQLHVEDENKIVQEFFLGTFDPEATAAFNQTVSDASTDASQRYHSHVYTNGTTCDLTGSPAEVEVRFVCAETRAMVTSITELSTCKYALTVQCPTLCKHPLFQLEKPVSHTIHCNAIPVEEDATRNKEEQAVDESPKMIADS
For B1, the “glycan array binding signal (z-score)” value [1] was 1.08, the “glycan array binding signal (z-score)” value [2] was 0.754 and the “glycan array binding signal (z-score)” value [3] was -0.796. For the same binder, the “glycan array binding signal (z-score)” value [4] was -0.082, the “glycan array binding signal (z-score)” value [5] was 0.104 and the “glycan array binding signal (z-score)” value [6] was 0.469. For the same binder, the “glycan array binding signal (z-score)” value [7] was -0.076, the “glycan array binding signal (z-score)” value [8] was -0.257 and the “glycan array binding signal (z-score)” value [9] was 0.154. For the same binder, the “glycan array binding signal (z-score)” value [10] was -0.061, the “glycan array binding signal (z-score)” value [11] was 0.133 and the “glycan array binding signal (z-score)” value [12] was -0.834. For the same binder, the “glycan array binding signal (z-score)” value [13] was -0.14, the “glycan array binding signal (z-score)” value [14] was -0.529 and the “glycan array binding signal (z-score)” value [15] was 0.864. The “glycan array binding signal (z-score)” value [16] was -0.295, the “glycan array binding signal (z-score)” value [17] was 0.17 and the “glycan array binding signal (z-score)” value [18] was -0.108. The “glycan array binding signal (z-score)” value [19] was -0.352.
